No constants are given. Whether binding was seen depends on the method and setting. In cells and extracts the contact can be indirect. Sequences can lack the tags named with a protein.
Biological target: T1, GST-Δ110-128 (Toxoplasma gondii) (UniProt B6KEU8)
T1 sequence: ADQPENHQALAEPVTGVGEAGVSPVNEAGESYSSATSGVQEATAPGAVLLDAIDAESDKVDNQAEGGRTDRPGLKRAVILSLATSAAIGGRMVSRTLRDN
Assay: pull-down; 60 μg of recombinant GST protein bound to glutathione-Sepharose beads, incubated with pre-cleared lysate of GRA23_3×HA parasites in buffer B for 1 h at room temperature; anti-HA immunoblot; only the target purified

## TgGRA23_3×HA (Toxoplasma gondii)
  binding: no binding

— paper PMC6451337, “The Toxoplasma gondii dense granule protein TgGRA3 interacts with host Golgi and dysregulates anterograde transport” (Biology Open, 2019)
